pKd: −log10 of the molar value. Construct, isoform or probe ends are uncertain for at least one entry. For some assays here: No signal at the amounts used counts as a negative.

Chains of the proteins cited; added tags and fusions are not shown.
UniProt Q06609, whole entry F129V: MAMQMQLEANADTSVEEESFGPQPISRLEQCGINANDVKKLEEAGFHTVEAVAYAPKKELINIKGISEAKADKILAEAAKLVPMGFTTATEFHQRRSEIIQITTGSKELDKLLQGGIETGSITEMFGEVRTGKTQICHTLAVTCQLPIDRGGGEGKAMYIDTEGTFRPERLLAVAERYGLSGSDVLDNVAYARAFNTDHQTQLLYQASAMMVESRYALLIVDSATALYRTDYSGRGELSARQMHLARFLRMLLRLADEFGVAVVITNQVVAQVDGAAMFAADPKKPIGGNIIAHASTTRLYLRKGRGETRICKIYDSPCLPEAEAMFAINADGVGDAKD
UniProt Q06609, whole entry H294V: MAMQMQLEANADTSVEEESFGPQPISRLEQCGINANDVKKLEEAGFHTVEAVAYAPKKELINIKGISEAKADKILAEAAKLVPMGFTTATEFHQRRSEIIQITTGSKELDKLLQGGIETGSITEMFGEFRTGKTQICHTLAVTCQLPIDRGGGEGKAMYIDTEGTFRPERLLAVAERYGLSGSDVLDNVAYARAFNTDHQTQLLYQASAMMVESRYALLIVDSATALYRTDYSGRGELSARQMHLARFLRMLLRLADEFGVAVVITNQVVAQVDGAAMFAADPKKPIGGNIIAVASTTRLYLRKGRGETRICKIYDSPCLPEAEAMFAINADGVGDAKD

The text below walks through data of paper PMC3155514.

Series [1] concerns the target HsRAD51(F129V) (Homo sapiens) (UniProt Q06609). In words: SPR. The note with it: SPR (Biacore 3000): 20 mM HEPES pH 7.5, 10% glycerol, 1 mM DTT, 1 mM MgCl2, 0.005% P-20, 2.5 mM indicated nucleotide, recombinant protein; for pKd: ATP (2.5 mM); for binding result: no nucleotide, Kd NA. In general terms: In SPR one partner is held on a chip, and binding of the other changes the refractive index at the surface.

The target of series [2] is HsRAD51(H294V) (Homo sapiens) (UniProt Q06609). Kind of series: SPR. The note with it: ATP (2.5 mM), text: largely defective in binding despite the Kd; SPR (Biacore 3000): 20 mM HEPES pH 7.5, 10% glycerol, 1 mM DTT, 1 mM MgCl2, 0.005% P-20, 2.5 mM indicated nucleotide; recombinant protein; label: 5' biotin; single-stranded DNA.

What is called pKd is the negative decadic logarithm of the Kd, by convention in mol/L. “TTTTTTTTTTTTTTTTTTTTTTTTTTTTTTTTTTTTTTTTTTTTTTTTTT [dT50]”: the pKd was 7.22 in series [1] (text: largely defective in binding despite the Kd, label: 5' biotin, single-stranded DNA) and 7.33 in series [2]. Moreover, in series [1] (label: 5' biotin, single-stranded DNA), the binding result is recorded as “no binding”.

As for “TCGAGAGGGTAAACCACAATTATTGATATAAAATAGTTTTGGGTAGGCGA (double strand) [50 bp dsDNA]”, the pKd in series [1] (text: only wild type bound dsDNA, label: 5' biotin on strand 1) was 6.29. Further, the binding result in series [1] (label: 5' biotin on strand 1) is “no binding”.
